Numbering of substitutions follows the chain as printed. No constants are given. Whether binding was seen depends on the method and setting. A result given as binding can be weak or reduced; the word gives no strength. Sequences can lack the tags named with a protein.
How the values were obtained:
Test in all cases: two-hybrid; PJ69-4A diploids from MATa cells with activation domain-Myo2 (wild type or point mutants) and MATalpha cells with binding domain-Vac17 (wild type or point mutants); growth for 3-4 days on YM+Glu Leu-Trp-Ade-His- medium with 0, 3, 6 or 10 mM 3-aminotriazole
[1] = molecular target: T1, vac17-R135E,R142E (binding-domain fusion, yeast two-hybrid) (S. cerevisiae) (UniProt P25591)
T1 sequence: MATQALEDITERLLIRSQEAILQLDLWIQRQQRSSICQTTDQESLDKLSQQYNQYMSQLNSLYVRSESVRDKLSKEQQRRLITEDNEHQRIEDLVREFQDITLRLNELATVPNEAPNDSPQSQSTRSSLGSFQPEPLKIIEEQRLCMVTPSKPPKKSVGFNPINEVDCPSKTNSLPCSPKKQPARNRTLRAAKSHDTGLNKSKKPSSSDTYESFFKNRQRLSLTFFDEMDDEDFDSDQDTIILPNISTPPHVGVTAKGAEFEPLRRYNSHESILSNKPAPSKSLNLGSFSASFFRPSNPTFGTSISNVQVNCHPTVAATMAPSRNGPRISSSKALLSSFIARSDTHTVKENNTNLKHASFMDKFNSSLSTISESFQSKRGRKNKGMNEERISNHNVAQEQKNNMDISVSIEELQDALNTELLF

[2] = molecular target: T2, vac17-R142E (binding-domain fusion, yeast two-hybrid) (S. cerevisiae) (UniProt P25591)
T2 sequence: T1 sequence with E135R

[3] = molecular target: T3, wild-type Vac17 (binding-domain fusion, yeast two-hybrid) (S. cerevisiae) (UniProt P25591)
T3 sequence: T1 sequence with E135R, E142R

Substance	binding [1]	binding [2]	binding [3]
myo2-N1304D cargo-binding domain (activation-domain fusion, yeast two-hybrid) (S. cerevisiae) (domain or fragment)	no binding	no binding	
myo2-E1293K cargo-binding domain (activation-domain fusion, yeast two-hybrid) (S. cerevisiae) (domain or fragment)	binds	binds	
myo2-D1297N cargo-binding domain (activation-domain fusion, yeast two-hybrid) (S. cerevisiae) (domain or fragment)	no binding	no binding	
myo2-D1296N cargo-binding domain (activation-domain fusion, yeast two-hybrid) (S. cerevisiae) (domain or fragment)			binds

Source: paper PMC11586526
